Measured values as given in PubChem BioAssay AID1671190 (National Center for Advancing Translational Sciences (NCATS), 2021).
Hit rate of the full screen: of about 580,000 compounds, about 6,100 (1.1%) were called active. Inconclusive results, whose numbers are uncertain, are shown with a selection of clear calls. Calls follow the shape of the dose curve; as a rule, active = well fitted inhibition curve with a large enough effect; inconclusive = small, poorly fitted or top-dose-only effect, or another doubt; inactive = no such curve, though single readings can be large or run the other way. A potency beside an inconclusive call is a rough fit, not a confirmed value.
% is scaled to controls: 0 for no effect and ±100 for the full control effect; potency is read from the fitted curve at half-maximal effect.

Chains of the proteins cited; added tags and fusions are not shown. Lines headed by an entry give the natural chain unless they say otherwise; changes in a name come on top.
UniProt P18054: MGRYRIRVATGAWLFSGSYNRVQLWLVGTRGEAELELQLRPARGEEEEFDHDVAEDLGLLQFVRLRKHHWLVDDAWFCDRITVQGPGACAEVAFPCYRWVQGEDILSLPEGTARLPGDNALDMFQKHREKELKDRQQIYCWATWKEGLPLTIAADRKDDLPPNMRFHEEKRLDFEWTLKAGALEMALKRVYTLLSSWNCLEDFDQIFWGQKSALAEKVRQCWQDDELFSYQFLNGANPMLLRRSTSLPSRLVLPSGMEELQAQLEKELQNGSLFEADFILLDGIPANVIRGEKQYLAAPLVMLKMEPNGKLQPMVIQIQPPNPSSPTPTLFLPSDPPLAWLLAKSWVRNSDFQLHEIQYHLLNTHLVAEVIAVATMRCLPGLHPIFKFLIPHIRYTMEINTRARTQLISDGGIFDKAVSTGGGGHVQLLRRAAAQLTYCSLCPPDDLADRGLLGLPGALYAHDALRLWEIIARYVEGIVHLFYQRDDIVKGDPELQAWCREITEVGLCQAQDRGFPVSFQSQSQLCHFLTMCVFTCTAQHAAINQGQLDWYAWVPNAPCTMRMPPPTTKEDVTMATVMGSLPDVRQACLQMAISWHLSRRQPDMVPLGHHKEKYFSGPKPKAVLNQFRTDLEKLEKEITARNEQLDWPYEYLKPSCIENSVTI

What follows are compounds tested against Polyunsaturated fatty acid lipoxygenase ALOX12 (Homo sapiens) (UniProt P18054) (assay: Primary qHTS assay for inhibitors of human arachidonate 12S-lipoxygenase (ALOX12): Round 2). Conditions: purified 12hLO, xylenol orange hydroperoxide absorbance; activity change, negative = inhibition: at 108 µM (top of the series) unless noted.
Procedure, shortened: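 Purified human 12hLO at 150 nM in 25 mM Hepes, 0.01% Triton X-100, pH 7.0, preincubated 15 min at room temperature with compound. Reaction started with 40 uM arachidonic acid, 30 min at room temperature. Hydroperoxide measured by Fe-xylenol orange, 573/405 nm absorbance ratio.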
For `CCn1nc(NC(=O)CC(C)C)c2cc3ccc(C)cc3nc21`, the Potency was “inactive”. For `Cc1[nH]c2ccccc2c1C(=O)c1cc2ccccc2o1`, the Potency was inconclusive: 31.6 µM [inhibitor, partial curve]. For `COc1ccc(C2c3c(oc4ccc(Cl)cc4c3=O)C(=O)N2CCN2CCOCC2)cc1` (centres undefined), the Potency was inconclusive: 126 µM [inhibitor, partial curve, poor fit]. `COc1ccc(S(=O)(=O)c2ccccc2)cc1NS(=O)(=O)c1cccc(C(=O)O)c1` was tested, and the Potency was inconclusive: 2.24 µM [inhibitor, full curve, poor fit]. For `COc1ccc(C2C(=O)N(C3CCC(C)CC3)CC(=O)N2CCc2ccccc2)cc1OC` (centres undefined), the activity change, negative = inhibition was inconclusive: -38.1% [inhibitor]. For `CCN(CC)c1ccc(CNC(=O)c2cc3c(s2)CN(C(C)C)C3)cc1`, the Potency was inconclusive: 17.8 µM [inhibitor, single point]. In the case of `CSc1cccc(NC(=O)CN(c2ccccc2)S(=O)(=O)N(C)C)c1`, the Potency is reported as inconclusive: 100 µM [inhibitor, partial curve, poor fit]. `Cc1ccc(-n2c(C3CCN(C(=O)c4ccc5cc[nH]c5c4)CC3)n[nH]c2=O)cc1` was tested, and the Potency was “inactive”. `O=C(NC(=S)Nc1ccc2c(c1)OCO2)c1ccc(Cl)cc1` was tested, and the Potency was “inactive”. With `COc1cccc(-c2cc(C(=O)N3CCCC3c3nncn3C(C)C)[nH]n2)c1` (centres undefined) the Potency was “inactive”. In the case of `COc1cccc(C2=NN(C(=O)c3ccco3)C(c3ccco3)C2)c1` (centres undefined), the Potency is reported as “inactive”. `O=C(NCc1nc(-c2ccccc2)no1)c1cc2cc(Br)ccc2o1` was tested, and the Potency was inconclusive: 112 µM [inhibitor, single point]. `Cn1cccc1/C=C1\SC(=O)N(CC(=O)Nc2ccc(Cl)cc2)C1=O` was tested, and the Potency was inconclusive: 2.24 µM [inhibitor, full curve, poor fit]. With `COc1ccc(-c2noc(-c3cccn3CC(=O)Nc3ccccc3C)n2)cc1F` the Potency was inconclusive: 79.4 µM [inhibitor, single point]. With `CN(C)c1ccc(C(=O)N[C@H]2CO[C@H]3[C@@H]2OC[C@@H]3n2cc(-c3ccccn3)nn2)cc1` the Potency was inconclusive: 126 µM [inhibitor, partial curve, poor fit]. In the case of `NC(=S)N/N=C1\C2C3CC4C1C1C2CC3C41` (centres undefined), the Potency is reported as inconclusive: 25.1 µM [inhibitor, partial curve, poor fit]. With `Cc1nn(C)c(C)c1CNC(=O)/C=C/c1ccccc1F` the Potency was “inactive”. In the case of `COc1ccc(CC(N)c2csc(NC(=O)Nc3ccccc3-c3ccccc3)n2)cc1` (centres undefined), the Potency is reported as inconclusive: 44.7 µM [inhibitor, partial curve, poor fit]. For `CC(=O)Nc1ccc(NC(=O)C(C)OC(=O)c2ccc3[nH]c(C)c(C)c3c2)cc1` (centres undefined), the Potency was inconclusive: 100 µM [inhibitor, single point]. In the case of `CN(C)/C=N/c1nc2nccc(-c3cccnc3)n2n1`, the Potency is reported as inconclusive: 141 µM [inhibitor, partial curve, poor fit]. `Nc1nc(-c2cc3c4c(c2)CC(=O)N4CCC3)cs1` was tested, and the Potency was inconclusive: 39.8 µM [inhibitor, partial curve, poor fit]. With `CC(CN1CCOCC1)OC(=O)C1COc2ccccc2O1` (centres undefined) the Potency was inconclusive: 44.7 µM [inhibitor, partial curve, poor fit]. In the case of `CCCn1c(N2CCN(CC(=O)Nc3ccc4c(c3)OCCO4)CC2)nc2ccccc21`, the Potency is reported as inconclusive: 8.91 µM [inhibitor, partial curve, poor fit]. `CC(=O)c1ccc(NC(=O)CSc2nc3[nH]c(=O)cc(O)c3s2)cc1` was tested, and the Potency was inconclusive: 100 µM [inhibitor, single point]. `Cc1ccc2c(Cl)c(C(=O)NC(C)c3ccncc3)sc2c1` (centres undefined) was tested, and the Potency was “inactive”. `Cc1cc2cc(-c3c(C)noc3C)nc(-c3cccc([S+](C)(=O)[O-])c3)c2o1` was tested, and the Potency was inconclusive: 17.8 µM [inhibitor, full curve, poor fit]. In the case of `O=C(O)CCC(=O)Nc1sc2c(c1C(=O)Nc1cccc3ccccc13)CCCCC2`, the Potency is reported as inconclusive: 31.6 µM [inhibitor, partial curve]. For `COc1cc(SC)ccc1C(=O)OC(C(=O)c1ccccc1)c1ccccc1` (centres undefined), the Potency was “inactive”. For `Nc1ccc2c3c(cccc13)-c1ccccc1-2`, the Potency was “inactive”. In the case of `CN(C)CCNC(=O)CCCN1C(=O)c2cccnc2Oc2ccc(Cl)cc21`, the Potency is reported as “inactive”. With `CCC(C)NC(=O)COC(=O)c1ccc(C)c(C)c1` (centres undefined) the Potency was “inactive”. With `Cc1ccc(N2CC(C)Cn3c2nc2c3c(=O)n(CC(=O)O)c(=O)n2C)cc1` (centres undefined) the Potency was inconclusive: 50.1 µM [inhibitor, partial curve, poor fit]. `Cc1c(NC(=S)SCc2ccccc2)c(=O)n(-c2ccccc2)n1C` was tested, and the Potency was “inactive”. With `Cc1cc(=O)c2cc(Br)ccc2n1CC(=O)NCc1ccccc1` the Potency was inconclusive: 112 µM [inhibitor, single point]. With `Cc1onc(-c2ccccc2)c1-c1nnc(CSc2nnnn2C2CCCCC2)o1` the Potency was “inactive”. `CC(=O)C1=C(C)NC(SCC(=O)c2cc(Cl)ccc2Cl)=C(C#N)C1c1ccco1` (centres undefined) was tested, and the Potency was inconclusive: 12.6 µM [inhibitor, partial curve, poor fit]. In the case of `O=c1c(-c2ccccc2)nc2cnc(Oc3ccccc3)nc2n1C1CC1`, the Potency is reported as inconclusive: 35.5 µM [inhibitor, single point]. `O=S(=O)(c1cc(Cl)ccc1Cl)N1CCCC1c1nnc2ccccn12` (centres undefined) was tested, and the Potency was “inactive”. With `COc1ccc2c(c1)CCCN2C(=O)c1cc2ccc(Cl)cc2nc1C` the Potency was inconclusive: 44.7 µM [inhibitor, single point]. For `O=C(Oc1ccccc1C(=S)N1CCCCC1)c1cc([N+](=O)[O-])cc([N+](=O)[O-])c1`, the Potency was inconclusive: 20 µM [inhibitor, partial curve, poor fit]. With `CCOC(=O)c1ccccc1NS(=O)(=O)c1ccccc1` the Potency was “inactive”. For `CCN1CCN(c2ncnc3c2cnn3-c2ccccc2)CC1`, the Potency was “inactive”. For `C=CCN1C(=O)N(c2ccc(Cl)cc2)C(=O)C1CC(=O)Nc1ccc(F)cc1` (centres undefined), the Potency was inconclusive: 112 µM [inhibitor, single point]. With `CNC(=O)c1nnsc1S(=O)c1ccc(Cl)cc1` (centres undefined) the Potency was “inactive”.
